The nature of this series: peptide synthesis. The note with it: conjugation step.

Strings that start with PEPTIDE1 are HELM notation: dots part the residues, brackets hold end groups and non-standard residues.

Consider “PEPTIDE1{[ac].D.E.V.D.[Cys(StBu)].[Pra(AmBF3)].[CBT]}$$$$V2.0”, for which the conjugation yield is 72%.

These data come from publication PMC6815954 (Theranostics, 2019).
